Data on 3 molecules can be found in doi:10.1101/2021.07.21.453261.

These are yes or no findings as the source states them, for the method shown. Binding seen in cells or lysates may run through a third protein. Here binding means that the protein was enriched with, or labelled near, the bait; the list need not be complete.

The assay has as its target TgGRA14 endogenously epitope-tagged at the C-terminus with 6x-HA (ME49Δku80 GRA14-HA6x) (Toxoplasma gondii (ME49)). Description: affinity purification with mass spectrometry.

B1: TgGRA4 (protein, UniProt Q27002 21-345)
chain: GECSFGSHLADMAGLSGRHDKERHQAKKRYYHSMYGNQTPYPYANGQQASPPPQGQLLIIQNPDGSFMIVDQQGVPQVPQAAGGPGSPMNGGYYMPTGVYTAQVVPGTPGHPVQAIPQQPLRTQATATYYHPAAVPPPGPSVFVFTPSSVQPGAEVTPGYSGLQLRQQSQYGYSYPGTTSTPTPPPPASYGYPVFPAFPRLPAFSDSVSVSTEDSGLTGVKDSSSSESTVTPADEAASESEEGDKTSRKSKVKKGILTGLGVAATLAAAAAAAKAVKGFGGTRTSTAPAEAGKTELDDGYRPPPFNPRPSPYAELLKDLERMRKE
For B1, the binding result is recorded as “binds”.

B2: Peflin (PEF1) (protein, UniProt Q9UBV8 1-284)
chain: MASYPYRQGCPGAAGQAPGAPPGSYYPGPPNSGGQYGSGLPPGGGYGGPAPGGPYGPPAGGGPYGHPNPGMFPSGTPGGPYGGAAPGGPYGQPPPSSYGAQQPGLYGQGGAPPNVDPEAYSWFQSVDSDHSGYISMKELKQALVNCNWSSFNDETCLMMINMFDKTKSGRIDVYGFSALWKFIQQWKNLFQQYDRDRSGSISYTELQQALSQMGYNLSPQFTQLLVSRYCPRSANPAMQLDRFIQVCTQLQVLTEAFREKDTAVQGNIRLSFEDFVTMTASRML
Consider B2, for which the binding result was “binds”.

B3: TgGRA1 (protein, UniProt P13403 25-190)
chain: AEGGDNQSSAVSDRASLFGLLSGGTGQGLGIGESVDLEMMGNTYRVERPTGNPDLLKIAIKASDGSYSEVGNVNVEEVIDTMKSMQRDEDIFLRALNKGETVEEAIEDVAQAEGLNSEQTLQLEDAVSAVASVVQDEMKVIDDVQQLEKDKQQLKDDIGFLTGERE
Consider B3, for which the binding entry was “binds”.
